Source: PubChem BioAssay AID588590 (National Center for Advancing Translational Sciences (NCATS), 2011)
About 4,000 (1%) of roughly 390,000 compounds were called active. This list was built around the results that the source calls inconclusive (neither active nor inactive); the mix of calls is not that of the screen. Calls come from the whole dose curve; as a rule, active = well fitted inhibition curve with a large enough effect; inconclusive = small, poorly fitted or top-dose-only effect, or another doubt; inactive = no such curve, though single readings can be large or run the other way. Potencies of inconclusive entries are doubtful fits and often do not repeat.

Amino acid sequences for entries named in this document (tags omitted). A change or cut given only in a name is not applied to a line headed by its entry.
UniProt Q9UNA4: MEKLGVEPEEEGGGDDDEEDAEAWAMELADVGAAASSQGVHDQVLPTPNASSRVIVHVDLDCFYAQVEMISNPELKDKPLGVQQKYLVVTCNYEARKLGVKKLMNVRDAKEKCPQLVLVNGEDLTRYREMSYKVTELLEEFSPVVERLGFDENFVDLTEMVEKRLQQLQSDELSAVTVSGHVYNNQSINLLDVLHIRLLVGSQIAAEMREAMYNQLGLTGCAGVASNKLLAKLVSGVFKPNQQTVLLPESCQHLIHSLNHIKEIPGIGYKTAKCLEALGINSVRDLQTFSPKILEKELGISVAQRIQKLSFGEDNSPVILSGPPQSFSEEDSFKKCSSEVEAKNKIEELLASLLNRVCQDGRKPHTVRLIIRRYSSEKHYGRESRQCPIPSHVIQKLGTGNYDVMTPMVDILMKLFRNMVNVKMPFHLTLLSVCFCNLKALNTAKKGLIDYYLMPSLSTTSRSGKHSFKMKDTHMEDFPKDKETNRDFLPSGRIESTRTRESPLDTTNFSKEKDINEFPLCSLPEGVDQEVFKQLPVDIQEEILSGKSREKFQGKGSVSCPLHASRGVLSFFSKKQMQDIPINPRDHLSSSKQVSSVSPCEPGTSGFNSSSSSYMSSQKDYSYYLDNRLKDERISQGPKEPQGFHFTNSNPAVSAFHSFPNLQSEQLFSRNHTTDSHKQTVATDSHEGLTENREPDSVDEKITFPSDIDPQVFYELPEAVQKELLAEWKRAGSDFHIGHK

These compounds were tested against DNA polymerase iota (Homo sapiens) (UniProt Q9UNA4) (assay: qHTS for Inhibitors of Polymerase Iota). Settings: Pol iota fluorescent replication assay, 10 min; series mostly up to 115 µM; activity, negative = inhibition: at the top concentration.
In short: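 Fluorescent replication assay read twice, at 0 min and 10 min after adding 50 nM (final) substrate. Enzyme (10 nM) and compounds were first incubated 15 min at room temperature; enzyme-free buffer wells were negative controls.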
Potency is the fitted concentration of half-maximal effect.

Potency, inconclusive:
CCN1CCCC1CNC(=O)C1CCN(C(=O)c2cc3sccc3n2Cc2ccc(F)cc2)CC1 (stereo unspecified) 3.16 µM [inhibitor, partial curve, poor fit], CCCNC(=O)COC(=O)c1ccccc1OCc1ccc(Cl)cc1 112 µM [inhibitor, single point], c1coc(-c2nn3c(-c4ccco4)nnc3s2)c1 50.1 µM [inhibitor, partial curve, poor fit], CCOC(=O)C1=C(c2ccc(OC)cc2)C(=O)c2ccccc2C1=O 8.91 µM [inhibitor, full curve, poor fit], COc1ccc(OC)c(CCNC(=O)C(C)n2nc(C)c3c(C)n(-c4ccc(C)cc4)nc3c2=O)c1 (stereo unspecified) 89.1 µM [inhibitor, partial curve, poor fit], CC1C/C(=N\NC(=O)c2ccc([N+](=O)[O-])cc2)CC(C)(C)C1 (stereo unspecified) 31.6 µM [inhibitor, partial curve, poor fit], CN(C)C(=O)CCc1ccc2c3c([nH]c2c1)[C@]1(C)[C@@H](C(=O)N2CCCCC2)C[C@H](CC(=O)NC(C)(C)C)C(=O)N1CC3 28.2 µM [inhibitor, partial curve, poor fit], O=C(O)c1ccc(Cn2nnc3sc4c(c3c2=O)CCCC4)cc1 20 µM [inhibitor, full curve], Cc1ccc(S(=O)(=O)N2CCN(C(=O)COC(=O)/C=C/c3ccc(OC(F)F)cc3)CC2)cc1 1.12 µM [inhibitor, partial curve, poor fit], CC1CN(c2nc3ccccn3c(=O)c2/C=C(\C#N)S(=O)(=O)c2ccccc2)CC(C)O1 (stereo unspecified) 10 µM [inhibitor, single point], CCC(C)c1ccc(O)c(NC(=O)c2cncc(Br)c2)c1 (stereo unspecified) 56.2 µM [inhibitor, partial curve, poor fit], CSc1ccccc1NC(=O)CCS(=O)(=O)c1nc(-c2cccs2)cc(C(F)(F)F)n1 25.1 µM [inhibitor, partial curve, poor fit], Cc1ccc(-c2cn3c4c(=O)n(C)c(=O)n(C)c4nc3n2-c2cccc(Cl)c2)cc1 89.1 µM [inhibitor, single point], Cc1ccc(/C=N/NC(=O)c2ccc3ccccc3c2)s1 89.1 µM [inhibitor, single point], Cc1cccc(CSC2=NN3CCCC(=O)N=C3S2)c1 56.2 µM [inhibitor, partial curve, poor fit], Cc1noc(C)c1CSc1nc2ccccc2nc1NS(=O)(=O)c1ccc(Cl)cc1 28.2 µM [inhibitor, single point], COc1ccc(N(Cc2cccs2)C(=O)Nc2cccc(Cl)c2)cc1 89.1 µM [inhibitor, partial curve, poor fit], Cc1cc2c3c([nH]c2cc1S(=O)(=O)NCc1ccc(CN2CCCCCC2)o1)CCCC3=O 56.2 µM [inhibitor, partial curve, poor fit], COc1ccc(C2CC(=O)N(CC(=O)Nc3ccc(C)c(Cl)c3)c3ccccc3S2)cc1OC (stereo unspecified) 89.1 µM [inhibitor, single point], COc1cccc(C(=O)OCC(=O)Nc2nnc(-c3ccccc3)o2)c1 5.62 µM [inhibitor, partial curve, poor fit], CCn1nnnc1SCC(=O)Nc1ccc(OCc2ccccc2)cc1 4.47 µM [inhibitor, full curve, poor fit], FC(F)(F)c1cccc(N2CCN(CC3CC4C=CC3C4)CC2)c1 (stereo unspecified) 22.4 µM [inhibitor, full curve], Nc1nncn1C(=O)c1cccs1 25.1 µM [inhibitor, partial curve, poor fit], Cc1nc(C)c(C(=O)C2=C(O)C(=O)N(CCN(C)C)C2c2ccco2)s1 (stereo unspecified) 79.4 µM [inhibitor, partial curve, poor fit], O=C(Nc1ccc(Sc2ccc(Br)cc2)cc1)c1ccco1 25.1 µM [inhibitor, single point], COc1ccc(Cc2nc(C(=O)NCc3ccccc3OC)cs2)cc1 56.2 µM [inhibitor, partial curve, poor fit], O=C(Cn1nnc(-c2ccc(Cl)cc2)n1)NCC1CCCCC1 89.1 µM [inhibitor, single point], COc1ccc(-c2cc(=O)[nH][nH]2)cc1 1.26 µM [inhibitor, full curve, poor fit], COc1ccc(C(=O)Nc2scc(-c3ccc(Cl)cc3Cl)c2C(N)=O)cc1 28.2 µM [inhibitor, single point]

Potency, active:
Cc1cccc(NC(=O)CNC(=O)Cn2ncc(Cl)c(Cl)c2=O)c1C 15.8 µM

activity, negative = inhibition, inactive:
CCc1ccc(S(=O)(=O)c2nnn3c2nc(Nc2cccc(C)c2C)c2sccc23)cc1 3.66%, CC(=O)Nc1ccc(N/C=C/C(=O)c2ccc(Cl)cc2)cc1 132%, CCN(C(=O)Cn1nc(Cc2cccnc2)c2ccccc2c1=O)c1cc(C)ccc1C 14.5%, Cc1ccc(NC(=O)CCNS(=O)(=O)c2ccc3[nH]c(=O)oc3c2)c(C)c1 -19.7%, O=C(CN1CCN(C(=O)c2ccco2)CC1)Nc1c2c(nc3c1CCC3)CCCC2 1.23%, COc1cccc(NC(=O)CCc2c(C)nc3ncnn3c2C)c1 7.58%, CCOc1ccc(NC(=O)C(=O)NCC(c2cccnc2)N2CCc3ccccc32)cc1 (stereo unspecified) 4.97%, CCOC(=O)Nc1cccc(Cl)c1C -10.9%, CCCc1noc(-c2ccc(NCc3ccc(C)cc3)c([N+](=O)[O-])c2)n1 21.5%, Cc1ccc(NC(=O)CN2C(=O)COc3ccc(S(=O)(=O)NC4CCCC4)cc32)c(Cl)c1 -15.8%, O=C(COC(=O)c1cncc(Br)c1)NCc1ccc(F)cc1 8.95%
